Assay results: the supplement of paper PMC12823440, “Inhibitors supercharge kinase turnover through native proteolytic circuits” (Nature, 2025)
Where a name gives a salt, the structure may show the parent alone. Some of the results follow. The calls rarely recur for the same compound in another form.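 In K562 cells expressing nanoluciferase-fused kinases, luminescence was recorded at 4 h intervals between 2 and 18 h, normalized as percent of control with DMSO at 100% and a positive control at 0%. A significant (2 sigma) signal drop marks a time point as decreased. The authors' rule for a hit is not shown and takes in more than the number of time points.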

The chains behind the UniProt entries cited, without tags or fusion partners.
UniProt Q96GD4, whole entry: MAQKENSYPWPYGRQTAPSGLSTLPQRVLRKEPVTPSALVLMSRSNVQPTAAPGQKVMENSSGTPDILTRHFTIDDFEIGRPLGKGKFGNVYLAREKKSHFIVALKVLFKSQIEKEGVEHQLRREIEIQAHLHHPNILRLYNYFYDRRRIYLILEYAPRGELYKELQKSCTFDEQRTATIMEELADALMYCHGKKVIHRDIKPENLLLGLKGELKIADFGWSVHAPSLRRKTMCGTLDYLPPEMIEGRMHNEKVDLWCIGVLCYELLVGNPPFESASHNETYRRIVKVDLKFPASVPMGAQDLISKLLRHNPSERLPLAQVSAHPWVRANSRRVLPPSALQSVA

Target: AURKB (UniProt Q96GD4)
Assay: number of time points (of 5) at which kinase-Nluc abundance scored as decreased, DMSO-normalised (count); higher = more persistent destabilization
Conditions: K562; 2-18 h

SMILES | number of time points
C[C@@H]1CCN(C(=O)CC#N)C[C@@H]1N(C)c1ncnc2[nH]ccc12 [Tofacitinib] (10 µM) | 0
CC#CC(=O)N1CC[C@@H](n2c(=O)n(-c3ccc(Oc4ccccc4)cc3)c3c(N)ncnc32)C1 [Tirabrutinib (hydrochloride)] (10 µM) | 0
Cc1ccc(C(=O)Nc2ccc(Oc3cc4cnn(C)c4cc3-c3cn[nH]c3)c(F)c2)c(=O)n1-c1ccc(F)cc1 [Merestinib] (2.5 µM) | 0
Cc1cc(Nc2ncnc3ccc(NC4=NC(C)(C)CO4)cc23)ccc1Oc1ccn2ncnc2c1 [Tucatinib (hemiethanolate)] (2.5 µM) | 0
C[C@@]1(c2ncncc2F)NC(=O)c2cc(-c3cn[nH]c3)ccc21 (10 µM) | 0
COc1cc(Nc2ncc(F)c(Nc3ccc4c(n3)NC(=O)C(C)(C)O4)n2)cc(OC)c1OC (10 µM) | 0
Cc1cc2ncc(-c3ccc(O)c(O)c3)nc2cc1C [Tyrphostin AG1433] (10 µM) | 0
C=CC(=O)Nc1cccc(Nc2nc(Nc3ccc(N4CCN(C(C)=O)CC4)cc3OC)ncc2C(F)(F)F)c1 [Rociletinib hydrobromide] (10 µM) | 0
Cc1cc(Nc2ncnc3ccc(NC4=NC(C)(C)CO4)cc23)ccc1Oc1ccn2ncnc2c1 [Tucatinib] (2.5 µM) | 0
CCc1cc2c(cc1N1CCC(N3CCOCC3)CC1)C(C)(C)c1[nH]c3cc(C#N)ccc3c1C2=O [Alectinib (Hydrochloride)] (2 µM) | 0
Cn1nccc1Nc1nccc(-c2ccn([C@H](CO)c3ccc(Cl)c(F)c3)c(=O)c2)n1 [Ravoxertinib hydrochloride] (10 µM) | 0
COc1cc2c(N3CCN(C(=O)Nc4ccc(OC(C)C)cc4)CC3)ncnc2cc1OCCCN1CCCCC1 [Tandutinib] (10 µM) | 0
CC#CC(=O)N1CC[C@@H](n2c(=O)n(-c3ccc(Oc4ccccc4)cc3)c3c(N)ncnc32)C1 [Tirabrutinib] (10 µM) | 0
C=CC(=O)Nc1cccc(Nc2nc(Nc3ccc(N4CCN(C(C)=O)CC4)cc3OC)ncc2C(F)(F)F)c1 [Rociletinib] (10 µM) | 0
COc1cc2c(N3CCN(C(=O)Nc4ccc(OC(C)C)cc4)CC3)ncnc2cc1OCCCN1CCCCC1 [Tandutinib (hydrochloride)] (10 µM) | 0
COc1cc2nccc(Oc3ccc(NC(=O)NC4CC4)c(Cl)c3)c2cc1C(N)=O [Lenvatinib (mesylate)] (10 µM) | 0
Oc1ccc(Nc2nc(-c3ccc(Cl)cc3)cs2)cc1 (10 µM) | 0
NC(=O)c1nc(Nc2ccccc2)sc1NC(=O)C1CCCCC1 (10 µM) | 0
CC1=C(C(=O)O)N2C(=O)[C@@H](NC(=O)[C@H](N)C3=CCC=CC3)[C@H]2SC1 [Cephradine] (10 µM) | 0

SMILES | number of time points
Cc1ccc(C(=O)Nc2ccc(Oc3cc4cnn(C)c4cc3-c3cn[nH]c3)c(F)c2)c(=O)n1-c1ccc(F)cc1 [Merestinib dihydrochloride] (2.5 µM) | 0
Cc1ccc2nc(NCCN)c3ncc(C)n3c2c1 (2.5 µM) | 0
CC(=O)NC1CC(n2cnc(NC(=O)Cc3ccc4ccccc4c3)c2)C1 (configuration not stated) (10 µM) | 0
COc1cc2nccc(Oc3ccc(NC(=O)NC4CC4)c(Cl)c3)c2cc1C(N)=O [Lenvatinib] (10 µM) | 0
Cn1cnc2c(F)c(Nc3ccc(Br)cc3Cl)c(C(=O)NOCCO)cc21 [Selumetinib (sulfate)] (10 µM) | 0
CCN1CCN(Cc2ccc(Nc3ncc(F)c(-c4cc(F)c5nc(C)n(C(C)C)c5c4)n3)nc2)CC1 [Abemaciclib] (2 µM) | 0
C[C@@H]1CCN(C(=O)CC#N)C[C@@H]1N(C)c1ncnc2[nH]ccc12 [Tofacitinib (citrate)] (10 µM) | 0
Cn1nccc1Nc1nccc(-c2ccn([C@H](CO)c3ccc(Cl)c(F)c3)c(=O)c2)n1 [Ravoxertinib] (10 µM) | 0
COc1cc(Nc2ncc(F)c(Nc3ccc4c(n3)NC(=O)C(C)(C)O4)n2)cc(OC)c1OC [R406 (free base)] (10 µM) | 0
S=C(SSC(=S)N1CCOCC1)N1CCOCC1 (10 µM) | 3
CC1CCc2c(cc(Br)c(F)c2Br)N1C=O (configuration not stated) (10 µM) | 0
Cc1[nH]c(/C=C2\C(=O)Nc3ccccc32)c(C)c1CCC(=O)O [(Z)-Orantinib] (10 µM) | 0
CCN1CCN(Cc2ccc(Nc3ncc(F)c(-c4cc(F)c5nc(C)n(C(C)C)c5c4)n3)nc2)CC1 [Abemaciclib (methanesulfonate)] (10 µM) | 1
Cn1cnc2c(F)c(Nc3ccc(Br)cc3Cl)c(C(=O)NOCCO)cc21 [Selumetinib] (10 µM) | 0
CCc1cc2c(cc1N1CCC(N3CCOCC3)CC1)C(C)(C)c1[nH]c3cc(C#N)ccc3c1C2=O [Alectinib] (10 µM) | 0
C=C(CC[C@@H](C(=O)O)[C@H]1[C@H](O)C[C@@]2(C)C3=C(CC[C@]12C)[C@@]1(C)CC[C@H](OC(C)=O)C(C)(C)[C@@H]1CC3)C(C)C [Pachymic acid] (10 µM) | 0
Cc1[nH]c(/C=C2\C(=O)Nc3ccccc32)c(C)c1CCC(=O)O [Orantinib] (10 µM) | 0
C=CC(=O)Nc1ccc(CN2C(=O)N(c3cc(OC)cc(OC)c3)Cc3cnc(Nc4ccc(N5CCN(C)CC5)cc4)nc32)cc1 (2.5 µM) | 0

Quoted at random: two entries already listed.
SMILES | number of time points
Cn1nccc1Nc1nccc(-c2ccn([C@H](CO)c3ccc(Cl)c(F)c3)c(=O)c2)n1 [Ravoxertinib hydrochloride] (10 µM) | 0
COc1cc2nccc(Oc3ccc(NC(=O)NC4CC4)c(Cl)c3)c2cc1C(N)=O [Lenvatinib] (10 µM) | 0
